Reference: article doi:10.1101/2020.05.07.082081
Like-named read-outs stand apart in the source and are kept apart here. No constants are given. Whether binding was seen depends on the method and setting. Binding seen in cells or lysates may run through a third protein. Some entries that bind do so weakly or less than the wild type.

Amino acid sequences for entries named in this document (tags omitted).
UniProt Q62420: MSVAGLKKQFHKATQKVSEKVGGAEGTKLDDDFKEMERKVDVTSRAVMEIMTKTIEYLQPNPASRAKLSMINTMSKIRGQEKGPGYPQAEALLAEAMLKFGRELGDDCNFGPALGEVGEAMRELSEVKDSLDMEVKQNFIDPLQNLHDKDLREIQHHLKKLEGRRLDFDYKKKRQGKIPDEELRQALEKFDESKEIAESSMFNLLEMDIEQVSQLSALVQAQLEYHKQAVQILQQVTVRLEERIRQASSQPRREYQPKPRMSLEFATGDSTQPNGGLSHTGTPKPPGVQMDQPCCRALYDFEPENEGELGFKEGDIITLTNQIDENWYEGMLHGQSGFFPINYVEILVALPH
UniProt Q60598: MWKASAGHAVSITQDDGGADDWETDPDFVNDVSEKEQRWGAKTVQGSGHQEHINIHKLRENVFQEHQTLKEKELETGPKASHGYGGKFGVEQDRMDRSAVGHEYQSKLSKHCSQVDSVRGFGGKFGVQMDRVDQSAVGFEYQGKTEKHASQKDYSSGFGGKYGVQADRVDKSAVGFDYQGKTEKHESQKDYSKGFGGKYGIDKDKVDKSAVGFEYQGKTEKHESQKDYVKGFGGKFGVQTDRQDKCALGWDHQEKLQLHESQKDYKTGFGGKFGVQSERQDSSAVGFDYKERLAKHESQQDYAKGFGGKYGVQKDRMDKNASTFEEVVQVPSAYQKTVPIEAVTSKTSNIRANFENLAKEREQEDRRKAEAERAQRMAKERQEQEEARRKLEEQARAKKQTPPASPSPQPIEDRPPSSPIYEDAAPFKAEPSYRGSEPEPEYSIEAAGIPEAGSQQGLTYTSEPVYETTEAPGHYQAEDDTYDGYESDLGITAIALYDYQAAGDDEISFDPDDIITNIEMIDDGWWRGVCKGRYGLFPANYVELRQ

How the values were obtained:
Test in all cases: co-IP
[1] = biological target: endophilin A1 (endogenous) (mouse (endogenous in cultured mouse neurons)) (UniProt Q62420)
Flag-endophilin A1 = Flag-endophilin A1 (UniProt Q62420)
[2] = biological target: endophilin A1 (endogenous) (mouse (endogenous in cultured mouse neurons)) (UniProt Q62420); remark: listed apart in the source

cortactin (endogenous) (from UniProt Q60598 1-546)
binding [1]: binds

B1: p140Cap (protein, UniProt Q9QWI6 1-1250)
chain: MQPWQCLRRFALAWWERTAEGRARSPREEVGPRDPGGRGEPDPERSSPPMLSADDAEYPREYRTLGGGGGGGSGGRRFSNVGLVHTSERRHTVIAAQSLEALSGLQKADADRKRDAFMDHLKSKYPQHALALRGQQDRMREQVGGWTVDPVCLLSSLCSHLHGDSTPSGAGQPAQQPNYWSFKTRSSRHTQGAQPGLADQAAKLSYASAESLETMSEAELPLGFSRMNRFRQSLPLSRSASQTKLRSPGVLFLQFGEETRRVHITHEVSSLDTLHALIAHMFPQKLTMGMLKSPNTAILIKDEARNVFYELEDVRDIQDRSIIKIYRKEPLYAAFPGSHLTNGDLRREMVYASRESSPTRRLNNLSPASHLASSSPPPGLPSGLPSGLPSGSPSRSRLSYAGGRPPSYAGSPVHHAAERLGGAPTGQGVSPSPSAILERRDVKPDEDLAGKAGGMVLVKGEGLYADPYGLLHEGRLSLAAAAETHSHTRARAACTSGVPCALSAPTPLPRCSPTWRTRCTRRALAALYGDGYGFRLPPSSPQKLADVSAPSGGPPPPHSPYSGPPSRGSPVRQSFRKDSGSSSVFAESPGGKARSTGSASTAGAPPSELFPGPGERSLVGFGPPVPAKDTETRERMEAMEKQIASLTGLVQSALLRGSEPETPSEKVEGSNGAATPSAPVCGSGSKSSGATPVSGPPPPSASSTPAGQPTAVSRLQMQLHLRGLQNSASDLRGQLQQLRNVQLQNQESVRALLKPTEADVSMRVSEAARRQEDPLQRQRTLVEEERLRYLNDEELITQQLNDLEKSVEKIQRDVAHNHRLMPGPELEEKALVLKQLGETLTELKAHFPGLQSKMRVVLRVEVEAVKFLKEEPQRLDGLLKRCRGVTDTLAQIRRQVDEGMWPPPNNLLNQSPKKVAAETDFSKGLDFEIPPPSPPLNLHELSGPAEGTPLTPKSTNPTKCLDASSKRNTDKAVSVEAAERDWEEKRAALTQYSAKDINRLLEETQAELLKAIPDLDCASKTHPGPAPTPDHKPPKAPHGQKAAPRTEPSGRRGSDELTVPRYRTEKPSKSPPPPPPRRSFPSSHGLTTTRTGEVVVTSKKDSVFIKKAESEELEVQKPQVKLRRAVSEVVRPASTPPIMASAIKDEDDEERIIAELESGGSSVPPMKVVTPGASRLKAAQGPAGSPDKGKHGKQRTEYMRIQAQQQATKPSKEVSGPNETSSPGSEKPSGSRTSIPVLTSFGARNSSISF
binding (Flag-endophilin A1): binds

B2: p140Cap (endogenous) (protein, UniProt Q9QWI6 1-1250)
chain: B1 chain
binding [2]: binds
